Measured values reported in the supplement of paper PMC12823440, “Inhibitors supercharge kinase turnover through native proteolytic circuits” (Nature, 2025).
Structures can show the parent of a compound that is named as a salt. The list shows a part of the results. Hit calls seldom repeat between salt and free forms of one compound.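 Kinases were expressed as nanoluciferase fusions in K562 cells and luminescence was read every 4 h between 2 and 18 h as percent of control, DMSO set to 100% and a positive control to 0%. A time point counts as decreased when the signal drops significantly (2 sigma). The hit call is the authors' own, does not follow from the count of time points alone, and its rule is not shown.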

Sequences of proteins named here, by UniProt entry; tags and fusion partners are left off. A change or cut given only in a name is not applied to a line headed by its entry.
UniProt O75460: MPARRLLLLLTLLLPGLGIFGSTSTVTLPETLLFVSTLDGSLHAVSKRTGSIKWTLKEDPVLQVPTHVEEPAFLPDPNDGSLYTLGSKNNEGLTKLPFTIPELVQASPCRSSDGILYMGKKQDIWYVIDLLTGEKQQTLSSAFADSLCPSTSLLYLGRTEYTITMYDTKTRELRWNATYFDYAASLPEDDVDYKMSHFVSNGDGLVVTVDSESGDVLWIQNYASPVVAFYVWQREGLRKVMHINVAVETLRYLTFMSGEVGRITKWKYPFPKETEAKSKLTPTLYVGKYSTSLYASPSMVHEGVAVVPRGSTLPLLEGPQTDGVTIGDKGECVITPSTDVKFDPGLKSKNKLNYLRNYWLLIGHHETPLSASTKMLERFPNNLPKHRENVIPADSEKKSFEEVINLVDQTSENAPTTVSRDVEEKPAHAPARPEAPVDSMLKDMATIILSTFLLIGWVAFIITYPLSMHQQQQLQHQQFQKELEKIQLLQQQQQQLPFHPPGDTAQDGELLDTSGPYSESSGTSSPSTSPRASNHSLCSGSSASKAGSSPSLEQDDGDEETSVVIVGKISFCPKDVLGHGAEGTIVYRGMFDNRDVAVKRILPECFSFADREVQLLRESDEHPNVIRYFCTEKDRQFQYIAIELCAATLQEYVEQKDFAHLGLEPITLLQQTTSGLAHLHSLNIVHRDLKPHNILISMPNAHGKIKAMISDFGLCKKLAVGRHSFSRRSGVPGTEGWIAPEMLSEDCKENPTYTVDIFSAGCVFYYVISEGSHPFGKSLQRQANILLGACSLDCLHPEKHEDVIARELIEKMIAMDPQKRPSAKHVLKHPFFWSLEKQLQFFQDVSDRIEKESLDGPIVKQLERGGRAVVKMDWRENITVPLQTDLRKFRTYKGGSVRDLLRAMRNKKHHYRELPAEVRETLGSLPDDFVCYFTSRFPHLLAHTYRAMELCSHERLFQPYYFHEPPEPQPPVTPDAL

Biological target: ERN1 (UniProt O75460)
Experiment: kinase-Nluc reporter destabilization hit call (1 = scored as downregulated) (binary); higher = compound decreases kinase abundance
Conditions: K562; 2-18 h

kinase-Nluc reporter destabilization hit call, inactive:
Cc1[nH]c(/C=C2\C(=O)Nc3ccccc32)c(C)c1CCC(=O)O [(Z)-Orantinib] (10 µM) 0
NC(=O)c1ccc(-c2nc(-c3ccc4c(c3)OCCO4)c(-c3ccccn3)[nH]2)cc1 (10 µM) 0
CCNc1nc(Nc2cc(F)c(C(=O)N3CCOCC3)cc2OC)ncc1C(F)(F)F [GNE-7915 (tosylate)] (10 µM) 0
Cc1cc(O)c2c(c1)C(=O)c1cc(O)cc(O)c1C2=O [Emodin] (10 µM) 0
Cc1ccc(C(=O)Nc2ccc(Oc3cc4cnn(C)c4cc3-c3cn[nH]c3)c(F)c2)c(=O)n1-c1ccc(F)cc1 [Merestinib dihydrochloride] (2.5 µM) 0
C=CC(=O)Nc1cc(C)ccc1Nc1nc(Nc2cc(OC)ncc2C)ncc1C(F)(F)F (10 µM) 0
Oc1cc(O)c2cc(O)c(-c3cc(O)c(O)c(O)c3)[o+]c2c1 [Delphinidin (chloride)] (10 µM) 0
O=C1NC(=O)/C(=C\c2cccc(C(F)(F)F)c2)S1 (2.5 µM) 0
Cc1nc2sccn2c(=O)c1CCN1CCC(=C(c2ccccc2)c2ccc(F)cc2)CC1 (10 µM) 0
CCc1cc2c(cc1N1CCC(N3CCOCC3)CC1)C(C)(C)c1[nH]c3cc(C#N)ccc3c1C2=O [Alectinib (Hydrochloride)] (2 µM) 0
FC(F)(c1ccc2ncccc2c1)c1nnc2ccc(-c3ccncc3)nn12 (10 µM) 0
O=C(N/N=C/c1coc2ccccc2c1=O)c1cccnc1 (10 µM) 0
O=C(Nc1ccc(CN2CCOCC2)cc1)c1ccc(-c2cccc(Cl)c2)o1 (10 µM) 0
NC(=O)c1nnc(N[C@@H]2CCCC[C@@H]2N)nc1Nc1cccc2cc[nH]c12 (10 µM) 0
COc1cc2ncc(-c3ccccc3)nc2cc1OC [Tyrphostin AG1296] (10 µM) 0
O=C(NOCC(O)CO)c1cc(Br)c(F)c(F)c1Nc1ccc(I)cc1F (stereo not drawn) (2.5 µM) 0
Cn1cnc(Cn2ccc3ccc(CNCc4[nH]c5ccccc5c4[C@H]4NC(=O)c5ccc(O)cc54)cc32)c1 (10 µM) 0
CC(=O)c1c(C)cc2cccc(O)c2c1O [Nepodin] (10 µM) 0
COc1cc(Nc2ncc(F)c(Nc3ccc4c(n3)N(COP(=O)(O)O)C(=O)C(C)(C)O4)n2)cc(OC)c1OC [Fostamatinib (disodium hexahydrate)] (10 µM) 0
Cc1ccccc1-c1c2nccc(-c3ccc(F)cc3F)c2cc[n+]1[O-] (10 µM) 0
Cn1nccc1Nc1nccc(-c2ccn([C@H](CO)c3ccc(Cl)c(F)c3)c(=O)c2)n1 [Ravoxertinib hydrochloride] (10 µM) 0
Nc1nc(F)nc2c1ncn2[C@@H]1O[C@H](CO)[C@@H](O)[C@@H]1O [Fludarabine] (10 µM) 0
O=C(CSC1=NCCN1)NC1CCCCCC1 [ICCB-19 (hydrochloride)] (2.5 µM) 0
CNC(=O)c1c(F)cccc1Nc1nc(Nc2cc3c(cc2OC)CCN3C(=O)CN(C)C)nc2[nH]ccc12 (10 µM) 0
COc1ccc(-c2ccc3c(N4CCOCC4)nc(N4C[C@@H](C)O[C@@H](C)C4)nc3n2)cc1CO (2.5 µM) 0
CC1=C(C(=O)O)N2C(=O)[C@@H](NC(=O)[C@H](N)C3=CCC=CC3)[C@H]2SC1 [Cephradine] (10 µM) 0
Cc1c(-c2c(F)cc(C(N)=O)c3[nH]c4c(c23)CC[C@H](C(C)(C)O)C4)cccc1-n1c(=O)c2cccc(F)c2n(C)c1=O (2.5 µM) 0
Cn1ncc(Cl)c1-c1cc(C(=O)N[C@H](CN)Cc2ccc(F)c(F)c2)oc1Cl [Uprosertib] (10 µM) 0
Cc1cccc(Oc2cnc(=O)[nH]c2)c1 [Tolimidone] (10 µM) 0
C[C@@H]1CCN(C(=O)CC#N)C[C@@H]1N(C)c1ncnc2[nH]ccc12 [Tofacitinib (citrate)] (10 µM) 0
COc1ccc(OC)c(C2C(C#N)=C(N)Oc3n[nH]c(-c4ccc5ccccc5c4)c32)c1 (stereo not drawn) (10 µM) 0
C=C1C(=O)O[C@H]2C[C@H](C)C(/C=C/C(C)=O)=CC[C@H]12 [Xanthatin] (2.5 µM) 0
C[C@]1(O)CCN(c2nc(N3C[C@H](O)[C@@H](O)C3)cc(C(F)(F)F)c2C#N)C1 (10 µM) 0
Cc1cc(Nc2ncnc3ccc(NC4=NC(C)(C)CO4)cc23)ccc1Oc1ccn2ncnc2c1 [Tucatinib (hemiethanolate)] (2.5 µM) 0
CCN1CCN(Cc2ccc(Nc3ncc(F)c(-c4cc(F)c5nc(C)n(C(C)C)c5c4)n3)nc2)CC1 [Abemaciclib (methanesulfonate)] (10 µM) 0
Cc1cc(=O)oc2c(C=O)c(O)ccc12 (10 µM) 0
CC1(C)C(O[C@@H]2OC[C@@H](O)[C@H](O)[C@H]2O)CC[C@]23CC24CC[C@]2(C)[C@@H]([C@@]5(C)CC[C@@H](C(C)(C)O)O5)[C@H](O)C[C@@]2(C)C4C[C@@H](O[C@@H]2O[C@H](CO)[C@@H](O)[C@H](O)[C@H]2O)C13 (stereo partly drawn) [Astragaloside IV] (10 µM) 0
CC[C@@H](Oc1nc(Oc2cc(C)cc(-c3cccc(CN)c3)c2)c(F)cc1F)C(=O)O (10 µM) 0

Arranged by SMILES length (largest number first): 3 of the compounds above.
kinase-Nluc reporter destabilization hit call, inactive:
FC(F)(c1ccc2ncccc2c1)c1nnc2ccc(-c3ccncc3)nn12 (10 µM) 0
Cc1cc(O)c2c(c1)C(=O)c1cc(O)cc(O)c1C2=O [Emodin] (10 µM) 0
O=C1NC(=O)/C(=C\c2cccc(C(F)(F)F)c2)S1 (2.5 µM) 0
